# Results from the supplement of paper PMC3682954.
# “And” between values parts separate entries of the source, which are not always exact repeats. Equal values may be shown once. Where a name gives a salt, the structure may show the parent alone. ± gives the standard deviation of the averaged measurements. The list shows a part of the results. Most values come without repeats; read them as rough.
# Tested on: RAW 264.7
# Assay: HMGB1-induced TNF-alpha production relative to HMGB1-stimulated control; higher = more TNF-alpha secretion (less inhibition)
# Settings: stimulus: HMGB1 5 ug/ml, 18 h
# [1] = compound concentration: 1 ug/ml
SMILES,HMGB1-induced TNF-alpha production (compound concentration: 3 uM),HMGB1-induced TNF-alpha production [1]
CCCOc1ccccc1-c1nc2[nH]nnc2c(=O)[nH]1 [Zaprinast],90.3 ± 22%,
CCCOc1ccccc1-c1nc2[nH]nnc2c(=O)[nH]1,79.7%,
CCC[C@@H]1C[C@@H](C(=O)N[C@@H]([C@H]2O[C@H](SC)[C@H](OP(=O)(O)O)[C@@H](O)[C@H]2O)[C@H](C)Cl)N(C)C1 [clindamycin 2-phosphate],,73.6%
CCC[C@@H]1C[C@@H](C(=O)N[C@@H]([C@H]2O[C@H](SC)[C@H](OP(=O)(O)O)[C@@H](O)[C@H]2O)[C@H](C)Cl)N(C)C1 [Clindamycin Phosphate],112%,
CCCCCCNC(=O)n1cc(F)c(=O)[nH]c1=O,96.8 ± 17%,
Nc1nc(=O)n([C@@H]2CS[C@H](CO)O2)cc1F [Emtricitabine],90.5%,
COc1ccc(Cl)cc1C(=O)NCCc1ccc(S(=O)(=O)NC(=O)NC2CCCCC2)cc1 [Glibenclamide],80.6%,
COc1ccc(Cl)cc1C(=O)NCCc1ccc(S(=O)(=O)NC(=O)NC2CCCCC2)cc1 [Glyburide],89.3%,
COc1ccc(Cl)cc1C(=O)NCCc1ccc(S(=O)(=O)NC(=O)NC2CCCCC2)cc1,87.4%,
COc1ccc(Cl)cc1C(=O)NCCc1ccc(S(=O)(=O)NC(=O)NC2CCCCC2)cc1 [Glybenclamide],62.4%,
CC(C)=CCC1=C(O)C(=O)c2ccccc2C1=O,81.6%,
COc1cc(SC)ccc1C(=O)N1CCC(Cc2ccccc2)CC1,96.8%,
CC#C[C@]1(O)CC[C@H]2[C@@H]3CCC4=CC(=O)CCC4=C3[C@@H](c3ccc(N(C)C)cc3)C[C@@]21C,101%,
CC#C[C@]1(O)CC[C@H]2[C@@H]3CCC4=CC(=O)CCC4=C3[C@@H](c3ccc(N(C)C)cc3)C[C@@]21C [Mifepristone],81.2 ± 22%,
CCCn1c(=O)c(C)cn2nc(N)nc12,86.7%,
NC(C(=O)O)C(O)C(=O)O (racemic) [DL-threo-beta-hydroxyaspartic acid],77.9%,
O=C(O)C1=CC(=C(c2ccc(O)c(C(=O)O)c2)c2ccc(O)c(C(=O)O)c2)C=CC1=O [Aurintricarboxylic acid],109%,
C[C@@H]1C/C=C/C=C/C=C/C=C/[C@H](O[C@@H]2O[C@H](C)[C@@H](O)[C@H](N)[C@@H]2O)C[C@@H]2O[C@](O)(C[C@@H](O)C[C@H]3O[C@@H]3/C=C/C(=O)O1)C[C@H](O)[C@H]2C(=O)O,88.1%,
CC(C(O)c1ccc(O)cc1)N1CCC(Cc2ccccc2)CC1 (stereo not given),84.1%,
CC(C(O)c1ccc(O)cc1)N1CCC(Cc2ccccc2)CC1 (stereo not given) [Ifenprodil],96.3 ± 14%,
CC(C(O)c1ccc(O)cc1)N1CCC(Cc2ccccc2)CC1 (stereo not given) [Ifenprodil tartrate],91.3 ± 8.7%,
O=c1ccn([C@@H]2O[C@H](COP(=O)(O)OP(=O)(O)O)[C@@H](O)[C@H]2O)c(=O)[nH]1 [Uridine 5'-diphosphate sodium],100%,
CC(C)[C@H](N)C(=O)OCCOCn1cnc2c(=O)nc(N)[nH]c21,113% and 89.1%,
CC(C)[C@H](N)C(=O)OCCOCn1cnc2c(=O)nc(N)[nH]c21 [Valaciclovir],80.7%,
CN1CCN2c3ncccc3Cc3ccccc3C2C1 (stereo not given) [Mirtazapine],79.1%,
CN1CCN2c3ncccc3Cc3ccccc3C2C1 (stereo not given),100%,
Cn1cc(C(F)(F)F)nc1-c1ccc(OCC(O)CNCCOc2ccc(O)c(C(N)=O)c2)cc1 (stereo not given),81%,

SMILES,HMGB1-induced TNF-alpha production (compound concentration: 3 uM),HMGB1-induced TNF-alpha production [1]
CN(C(=O)CN(CCO)CC(=O)N(C)C(C)(C)Cc1ccccc1)C(C)(C)Cc1ccccc1,75.9%,
CN(C(=O)CN(CCO)CC(=O)N(C)C(C)(C)Cc1ccccc1)C(C)(C)Cc1ccccc1 [Oxethazaine],56.5%,
COC(=O)N/N=C/c1c[n+]([O-])c2ccccc2[n+]1[O-] [Carbadox],107 ± 7.2%,
COC(=O)N/N=C/c1c[n+]([O-])c2ccccc2[n+]1[O-],99.5%,
CC1(C)O[C@@H]2C[C@H]3[C@@H]4C[C@H](F)C5=CC(=O)C=C[C@]5(C)[C@@]4(F)[C@@H](O)C[C@]3(C)[C@]2(C(=O)CO)O1 [Fluocinolone acetonide],45.5 ± 0.98%,
CC1(C)O[C@@H]2C[C@H]3[C@@H]4C[C@H](F)C5=CC(=O)C=C[C@]5(C)[C@@]4(F)[C@@H](O)C[C@]3(C)[C@]2(C(=O)CO)O1,35.2%,
COc1cc(NS(=O)(=O)c2ccc(N)cc2)ncn1,81.7%,
COc1cc(NS(=O)(=O)c2ccc(N)cc2)ncn1 [Sulfamonomethoxine],128%,
Cc1cc(C)nc(NS(=O)(=O)c2ccc(N)cc2)n1 [Sulfamethazine sodium salt],86.1%,
Cc1cc(C)nc(NS(=O)(=O)c2ccc(N)cc2)n1,92.3%,
C=C/C(C)=C/[C@@]1(C)SC(=O)C(C)=C1O [Thiolactomycin],119%,
CCOC(=O)Nc1nc2ccccc2[nH]1,84.1%,
CCOC(=O)/C=C(C)/C=C/C=C(C)/C=C/c1c(C)cc(OC)c(C)c1C [Etretinate],91.4 ± 13%,
NC[C@H]1O[C@H](O[C@H]2[C@H](O)[C@@H](O[C@H]3O[C@H](CO)[C@@H](O)[C@H](N)[C@H]3O)[C@H](N)C[C@@H]2N)[C@H](N)C[C@@H]1O [Tobramycin],64.9%,
NC[C@H]1O[C@H](O[C@H]2[C@H](O)[C@@H](O[C@H]3O[C@H](CO)[C@@H](O)[C@H](N)[C@H]3O)[C@H](N)C[C@@H]2N)[C@H](N)C[C@@H]1O [Tobramycin (free base)],85.1%,
NC[C@H]1O[C@H](O[C@H]2[C@H](O)[C@@H](O[C@H]3O[C@H](CO)[C@@H](O)[C@H](N)[C@H]3O)[C@H](N)C[C@@H]2N)[C@H](N)C[C@@H]1O,99.4 ± 3.9%,
COc1cc(-c2cc(=O)c3ccccc3o2)ccc1O,,59.7%
C=CCOc1ccccc1OCC(O)CNC(C)C (stereo not given) [Oxprenolol hydrochloride],117%,
COc1ccc(CC(=O)c2c(O)cc(O)cc2O)cc1O,,63.4%
Cc1c(N)c(=O)n(-c2ccccc2)n1C [Ampyrone],76.2%,
Nc1nc2c(cnn2CCc2ccccc2)c2nc(-c3ccco3)nn12,104%,
OC[C@H]1O[C@@H](n2cnc3c(Cl)ncnc32)[C@H](O)[C@@H]1O [6-Chloropurine riboside],,66.6%
COc1ccc2c(c1)c(CC(=O)O)c(C)n2C(=O)c1ccccc1 [1-benzoyl-5-methoxy-2-methylindole-3-acetic acid],97.8%,
"O=c1[nH]ccc2c(O)cccc12 [1,5-Isoquinolinediol]",109%,
CC(C)(CO)[C@@H](O)C(=O)NCCC(=O)O [PANTOTHENIC ACID(d) Na salt],85.7%,
CC(C)(CO)[C@@H](O)C(=O)NCCC(=O)O [Pantothenic acid],101%,
Cc1cc(C(C)(C)C)cc(C)c1CC1=NCCN1,83.6%,

# A few values from above:
# Value for C=CCOc1ccccc1OCC(O)CNC(C)C (stereo not given) [Oxprenolol hydrochloride] under HMGB1-induced TNF-alpha production (compound concentration: 3 uM): 117%
# Value for NC[C@H]1O[C@H](O[C@H]2[C@H](O)[C@@H](O[C@H]3O[C@H](CO)[C@@H](O)[C@H](N)[C@H]3O)[C@H](N)C[C@@H]2N)[C@H](N)C[C@@H]1O under HMGB1-induced TNF-alpha production (compound concentration: 3 uM): 99.4 ± 3.9%
# Value for CN(C(=O)CN(CCO)CC(=O)N(C)C(C)(C)Cc1ccccc1)C(C)(C)Cc1ccccc1 [Oxethazaine] under HMGB1-induced TNF-alpha production (compound concentration: 3 uM): 56.5%
# Value for CCOC(=O)/C=C(C)/C=C/C=C(C)/C=C/c1c(C)cc(OC)c(C)c1C [Etretinate] under HMGB1-induced TNF-alpha production (compound concentration: 3 uM): 91.4 ± 13%
# Value for COc1ccc(Cl)cc1C(=O)NCCc1ccc(S(=O)(=O)NC(=O)NC2CCCCC2)cc1 under HMGB1-induced TNF-alpha production (compound concentration: 3 uM): 87.4%

# Additional entries:

SMILES,HMGB1-induced TNF-alpha production (compound concentration: 3 uM),HMGB1-induced TNF-alpha production [1]
Cc1cc(C(C)(C)C)cc(C)c1CC1=NCCN1 [Xylometazoline hydrochloride],83.6 ± 7.9%,
CCN(CC)C(=O)C1(c2ccccc2)CC1CN (stereo not given) [Milnacipran],106%,
CCN(CCCCOC(=O)c1ccc(OC)c(OC)c1)C(C)Cc1ccc(OC)cc1 (stereo not given) [Mebeverine hydrochloride],65.7%,
CCN(CCCCOC(=O)c1ccc(OC)c(OC)c1)C(C)Cc1ccc(OC)cc1 (stereo not given),86.9%,
O=P(O)(O)C(O)(Cn1ccnc1)P(=O)(O)O [Zoledronic acid],118%,
O=C(c1cc(O)c(O)c([N+](=O)[O-])c1)c1ccccc1F,103%,
CCN(CC)CCOCCOC(=O)C1(c2ccccc2)CCCC1 [Carbetapentane citrate],76.2 ± 29%,
CCN(CC)CCOCCOC(=O)C1(c2ccccc2)CCCC1,86.5%,
C[C@@H]1C[C@H]2[C@@H]3CCC4=CC(=O)C=C[C@]4(C)[C@@]3(F)[C@@H](O)C[C@]2(C)[C@H]1C(=O)CO,52.4%,
CCN(CC)C(=O)Nc1ccc(OCC(O)CNC(C)(C)C)c(C(C)=O)c1 (stereo not given) [Celiprolol HCl],107%,
O=C(CCBr)N1CCN(C(=O)CCBr)CC1,86.9 ± 5.9%,
CCCCC1C(=O)N(c2ccccc2)N(c2ccc(O)cc2)C1=O (stereo not given),76.3%,
CCCCC1C(=O)N(c2ccccc2)N(c2ccc(O)cc2)C1=O (stereo not given) [Oxyphenbutazone],100%,
N[C@H]1CONC1=O [L-Cycloserine],70.5%,
N[C@H]1CONC1=O [(S)-(-)-Cycloserine],129%,
O=c1c(O)c(-c2ccc(O)cc2)oc2cc(O)cc(O)c12 [Kaempferol],,62.2%
CC(=O)Nc1ccc(OC(=O)c2ccccc2O)cc1,84.4%,
COc1cc2nc(N3CCN(C(=O)C4COc5ccccc5O4)CC3)nc(N)c2cc1OC (stereo not given) [Doxazosin mesylate],93.2 ± 6.1%,
COc1cc2nc(N3CCN(C(=O)C4COc5ccccc5O4)CC3)nc(N)c2cc1OC (stereo not given),73.5%,
COc1cc2nc(N3CCN(C(=O)C4COc5ccccc5O4)CC3)nc(N)c2cc1OC (stereo not given) [Doxazosin],98%,
O=C(O)C1=C(CSc2nnnn2CS(=O)(=O)O)CS[C@@H]2[C@H](NC(=O)[C@H](O)c3ccccc3)C(=O)N12,89.6%,
CCOC(=O)[C@@H](C)Oc1cccc2c(=O)n(CC(=O)Nc3ccc4c(c3)OCCO4)ccc12,114%,
CNCC(O)c1ccc(O)c(O)c1 (stereo not given) [Racepinephrine HCl],68.1%,
c1cc(CN2CCCCC2)cc(OCCCNc2nc3ccccc3s2)c1,90.9%,
CCOC1O[C@H]([C@@H](COCc2ccccc2)OCc2ccccc2)[C@H](OCc2ccccc2)[C@H]1O (stereo not given in full) [Tribenoside],77.7%,
CC(=O)Nc1c(I)c(C(=O)N[C@H]2C(O)O[C@H](CO)[C@@H](O)[C@@H]2O)c(I)c(N(C)C(C)=O)c1I (stereo not given in full) [Metrizamide],70.8%,
